Source: PMC5993538, “The plant-specific transcription factors CBP60g and SARD1 are targeted by a Verticillium secretory protein VdSCP41 to modulate immunity”
No constants are given. Whether binding was seen depends on the method and setting. In cells and extracts the contact can be indirect. Sequences can lack the tags named with a protein.

Sequences of proteins named here, by UniProt entry; tags and fusion partners are left off.
UniProt Q9C9T2: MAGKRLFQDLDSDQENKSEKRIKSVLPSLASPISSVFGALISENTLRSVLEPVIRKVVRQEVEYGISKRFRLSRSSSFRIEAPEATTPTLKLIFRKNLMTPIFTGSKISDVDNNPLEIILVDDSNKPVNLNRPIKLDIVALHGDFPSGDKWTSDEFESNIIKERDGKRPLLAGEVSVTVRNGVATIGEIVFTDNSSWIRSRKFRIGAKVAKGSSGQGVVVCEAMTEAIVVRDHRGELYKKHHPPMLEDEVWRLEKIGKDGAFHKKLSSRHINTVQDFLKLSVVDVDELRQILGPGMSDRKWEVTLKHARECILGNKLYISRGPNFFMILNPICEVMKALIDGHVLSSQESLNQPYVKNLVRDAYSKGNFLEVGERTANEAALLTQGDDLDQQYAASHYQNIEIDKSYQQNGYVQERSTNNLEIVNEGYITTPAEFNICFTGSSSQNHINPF

Target: T1, CLuc-CBP60g (Arabidopsis) (UniProt F4K2R6)
T1 sequence: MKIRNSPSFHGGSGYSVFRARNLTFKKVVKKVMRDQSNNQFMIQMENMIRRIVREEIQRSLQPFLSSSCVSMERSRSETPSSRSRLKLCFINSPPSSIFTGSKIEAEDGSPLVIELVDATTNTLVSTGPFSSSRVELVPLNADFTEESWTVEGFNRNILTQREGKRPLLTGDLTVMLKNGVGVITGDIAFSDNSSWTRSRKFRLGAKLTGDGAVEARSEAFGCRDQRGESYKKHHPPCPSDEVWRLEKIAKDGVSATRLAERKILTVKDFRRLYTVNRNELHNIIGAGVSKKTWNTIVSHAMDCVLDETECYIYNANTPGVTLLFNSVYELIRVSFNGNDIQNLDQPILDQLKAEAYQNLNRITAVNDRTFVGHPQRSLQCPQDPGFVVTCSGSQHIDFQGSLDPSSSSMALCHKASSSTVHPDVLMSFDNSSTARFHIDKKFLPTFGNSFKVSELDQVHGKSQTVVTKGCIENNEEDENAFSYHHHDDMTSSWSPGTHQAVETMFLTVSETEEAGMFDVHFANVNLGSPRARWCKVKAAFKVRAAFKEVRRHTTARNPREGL
Test: split reporter; luciferase complementation imaging in N. benthamiana leaves, Agrobacterium-infiltrated NLuc- and CLuc-tagged constructs, LUC activity 2 days post infiltration, CCD imaging and microplate luminometer

NLuc-tagged SARD1 (from UniProt Q9C9T2 1-451)
binding: no binding
